Data as given in PubChem BioAssay AID1259306 (Sanger Institute, 2017)

Screen: 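Find kinases whose loss reduces colorectal cancer cell viability or aids targeted drugs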 (primary screen)
Cell system: human SNU-C5 colorectal cancer cells
Knock-down reagent: siRNA pool against human genes
Treatment: DMSO vehicle alone, or one anchor drug: BYL719 at 1 µM, cetuximab at 5 µg/ml or trametinib at 10 nM, given 24 h into the assay
Detection: 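Viability versus non-targeting pool averaged across replicates, given as fraction and robust z-score, and synergy scores for BYL719, cetuximab or trametinib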
Reading the numbers: robust z-score, knock-down alone: higher = more viable cells
Call rule: 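Essential if knock-down without drug gives a robust z-score under -3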
Calls: active = essential (knock-down alone); inactive = no change alone
The deposit covers 794 reagents; below is a random part of them. In the full data, 11 (1.4%) were called active. 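Calls reflect knock-down alone; synergy scores play no part, so knock-downs synergising with a drug can be called no change.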 A number with no mark means an inactive call. The numbers tell different reagents against one gene apart. Further read-outs or replicates are left out here. Reagent sequences are not shown. The record does not give: the amount of reagent, the time to read-out.

robust z-score, knock-down alone, by gene and reagent
CSNK1A1 (casein kinase 1 alpha 1): #1 0.489
OXSR1 (oxidative stress responsive kinase 1): #1 0.0608
CALM3 (calmodulin 3): #1 0.41
ACVRL1 (activin A receptor like type 1): #1 0.989
MVK (mevalonate kinase): #1 0.989
AK7 (adenylate kinase 7): #1 -1.38
MAP3K1 (mitogen-activated protein kinase kinase kinase 1): #1 0.989
EIF2AK1 (eukaryotic translation initiation factor 2 alpha kinase 1): #1 0.989
CAMK2D (calcium/calmodulin dependent protein kinase II delta): #1 0.838
SGK2 (serum/glucocorticoid regulated kinase 2): #1 0.353
TLK1 (tousled like kinase 1): #1 -0.91
CSNK1G1 (casein kinase 1 gamma 1): #1 -2.22
CDKL3 (cyclin dependent kinase like 3): #1 0.989
GRK4 (G protein-coupled receptor kinase 4): #1 -0.288
MAPK7 (mitogen-activated protein kinase 7): #1 0.989
PSTK (phosphoseryl-tRNA kinase): #1 -2.14
DLG2 (discs large MAGUK scaffold protein 2): #1 0.989
FES (FES proto-oncogene, tyrosine kinase): #1 -2.61
CDK4 (cyclin dependent kinase 4): #1 0.989
PLK1 (polo like kinase 1): #1 -3.42 (active)
BCOR (BCL6 corepressor): #1 0.93
MAPK4 (mitogen-activated protein kinase 4): #1 0.746
FGFR4 (fibroblast growth factor receptor 4): #1 0.96
CIB2 (calcium and integrin binding family member 2): #1 -2
STK33 (serine/threonine kinase 33): #1 -0.523
PFKFB1 (6-phosphofructo-2-kinase/fructose-2,6-biphosphatase 1): #1 -2.31
MAP4K2 (mitogen-activated protein kinase kinase kinase kinase 2): #1 0.748
PRKCZ (protein kinase C zeta): #1 -1.22
CEP290 (centrosomal protein 290): #1 0.159
PKN1 (protein kinase N1): #1 0.564
IGF1R (insulin like growth factor 1 receptor): #1 -0.36
CHEK2 (checkpoint kinase 2): #1 0.0833
PSKH2 (protein serine kinase H2): #1 0.989
PIP5K1A (phosphatidylinositol-4-phosphate 5-kinase type 1 alpha): #1 -1.79
GALK2 (galactokinase 2): #1 -1.17
ETNK2 (ethanolamine kinase 2): #1 -0.733
MAP2K5 (mitogen-activated protein kinase kinase 5): #1 0.509
PRKG1 (protein kinase cGMP-dependent 1): #1 0.989
ULK3 (unc-51 like kinase 3): #1 -0.673
MAP2K2 (mitogen-activated protein kinase kinase 2): #1 0.989
ILK (integrin linked kinase): #1 0.04; #2 0.0571
PNKP (polynucleotide kinase 3'-phosphatase): #1 0.239
MAP3K6 (mitogen-activated protein kinase kinase kinase 6): #1 0.302
MLKL (mixed lineage kinase domain like pseudokinase): #1 -0.533
DGKA (diacylglycerol kinase alpha): #1 0.587
GUCY2EP (guanylate cyclase 2E, pseudogene): #1 0.247
EPHA6 (EPH receptor A6): #1 -2.64
MAP4K4 (mitogen-activated protein kinase kinase kinase kinase 4): #1 0.654
PRKCE (protein kinase C epsilon): #1 0.364

Reagents listed so far called active, once more:
robust z-score, knock-down alone, by gene and reagent
PLK1 (polo like kinase 1): #1 -3.42 (active)
